Measured values taken from PMC10352565.
These are yes or no findings as the source states them, for the method shown. In cells and extracts the contact can be indirect. These calls come from enrichment with a bait or labelling near it, and not all partners need be listed.

Sequences of proteins named here, by UniProt entry; tags and fusion partners are left off.
UniProt Q5SU73: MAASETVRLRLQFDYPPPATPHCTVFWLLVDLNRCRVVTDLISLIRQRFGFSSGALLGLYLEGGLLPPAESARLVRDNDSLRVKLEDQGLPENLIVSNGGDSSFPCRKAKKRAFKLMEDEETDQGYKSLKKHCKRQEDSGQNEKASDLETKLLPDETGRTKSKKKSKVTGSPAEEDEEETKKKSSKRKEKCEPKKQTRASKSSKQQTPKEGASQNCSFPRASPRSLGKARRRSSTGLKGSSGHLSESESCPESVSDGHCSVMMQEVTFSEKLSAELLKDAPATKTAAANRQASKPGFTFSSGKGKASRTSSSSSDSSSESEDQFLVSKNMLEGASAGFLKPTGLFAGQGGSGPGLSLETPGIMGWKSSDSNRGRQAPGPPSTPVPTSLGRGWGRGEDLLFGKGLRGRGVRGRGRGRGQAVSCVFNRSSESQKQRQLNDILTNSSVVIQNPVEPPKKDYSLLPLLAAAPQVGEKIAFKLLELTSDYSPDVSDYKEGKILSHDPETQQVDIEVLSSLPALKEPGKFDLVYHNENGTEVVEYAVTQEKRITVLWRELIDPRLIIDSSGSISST

Molecular target: T1, HSF4 (mouse (endogenous in NIH-3T3)) (UniProt Q9R0L1)
T1 sequence: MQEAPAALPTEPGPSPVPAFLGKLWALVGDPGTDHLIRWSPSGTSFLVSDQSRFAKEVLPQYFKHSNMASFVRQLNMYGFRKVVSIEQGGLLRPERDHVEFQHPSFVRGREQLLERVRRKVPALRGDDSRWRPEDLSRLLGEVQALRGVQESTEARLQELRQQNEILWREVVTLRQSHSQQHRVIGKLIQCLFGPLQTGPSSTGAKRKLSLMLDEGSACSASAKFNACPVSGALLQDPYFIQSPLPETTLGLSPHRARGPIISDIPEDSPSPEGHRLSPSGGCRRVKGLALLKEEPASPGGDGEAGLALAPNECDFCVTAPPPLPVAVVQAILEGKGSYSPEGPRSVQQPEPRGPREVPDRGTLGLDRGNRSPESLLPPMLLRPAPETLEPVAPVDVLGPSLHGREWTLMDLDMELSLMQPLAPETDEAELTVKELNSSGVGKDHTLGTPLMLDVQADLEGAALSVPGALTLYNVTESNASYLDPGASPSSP
Assay: affinity purification with mass spectrometry; pull-down with HSF4 from UV-treated NIH-3T3 cells; antibody or cognate IgG coupled to A/G beads, incubated with proteins overnight at 4°C; proteins pulled down identified by mass spectrometry

With “COIL (coilin) (from UniProt Q5SU73 1-570)” the binding was “binds”.
